Results published in paper PMC8782181.
These are yes or no findings as the source states them, for the method shown. Binding seen in cells or lysates may run through a third protein. Here binding means that the protein was enriched with, or labelled near, the bait; the list need not be complete. Tags and fused reporters may be left off the sequences shown.

Biological target: T1, Dcp1-myc (S. cerevisiae), Q12517
T1 chain: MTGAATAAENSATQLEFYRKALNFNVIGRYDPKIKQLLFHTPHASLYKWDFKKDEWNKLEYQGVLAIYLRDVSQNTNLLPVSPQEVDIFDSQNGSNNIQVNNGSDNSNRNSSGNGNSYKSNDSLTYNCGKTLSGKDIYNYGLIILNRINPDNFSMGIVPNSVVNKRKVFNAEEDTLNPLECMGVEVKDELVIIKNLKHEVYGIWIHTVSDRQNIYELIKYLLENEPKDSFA
Test: affinity purification with mass spectrometry; cells unstressed or glucose-depleted (10 min for Dcp1-myc, 60 min for Pbp1-myc), cross-linked with 0.8% formaldehyde; 20,000 g pellet of the lysate in Blob100 buffer (20 mM Tris-HCl pH 8, 100 mM NaCl, 1 mM MgCl2, 0.5% NP40) on anti-c-Myc magnetic beads, eluted with Myc peptide; label-free LC-MS/MS; hits are the proteins that cluster (Mfuzz) with the tagged bait across …
Settings: remark: other sources report otherwise

B1: Pat1, P25644 1-796 (protein)
chain: MSFFGLENSGNARDGPLDFEESYKGYGEHELEENDYLNDETFGDNVQVGTDFDFGNPHSSGSSGNAIGGNGVGATARSYVAATAEGISGPRTDGTAAAGPLDLKPMESLWSTAPPPAMAPSPQSTMAPAPAPQQMAPLQPILSMQDLERQQRQMQQQFMNFHAMGHPQGLPQGPPQQQFPMQPASGQPGPSQFAPPPPPPGVNVNMNQMPMGPVQVPVQASPSPIGMSNTPSPGPVVGATKMPLQSGRRSKRDLSPEEQRRLQIRHAKVEKILKYSGLMTPRDKDFITRYQLSQIVTEDPYNEDFYFQVYKIIQRGGITSESNKGLIARAYLEHSGHRLGGRYKRTDIALQRMQSQVEKAVTVAKERPSKLKDQQAAAGNSSQDNKQANTVLGKISSTLNSKNPRRQLQIPRQQPSDPDALKDVTDSLTNVDLASSGSSSTGSSAAAVASKQRRRSSYAFNNGNGATNLNKSGGKKFILELIETVYEEILDLEANLRNGQQTDSTAMWEALHIDDSSYDVNPFISMLSFDKGIKIMPRIFNFLDKQQKLKILQKIFNELSHLQIIILSSYKTTPKPTLTQLKKVDLFQMIILKIIVSFLSNNSNFIEIMGLLLQLIRNNNVSFLTTSKIGLNLITILISRAALIKQDSSRSNILSSPEISTWNEIYDKLFTSLESKIQLIFPPREYNDHIMRLQNDKFMDEAYIWQFLASLALSGKLNHQRIIIDEVRDEIFATINEAETLQKKEKELSVLPQRSQELDTELKSIIYNKEKLYQDLNLFLNVMGLVYRDGEISELK
- binding: binds

B2: Scd6, P45978 1-349 (protein)
chain: MSQYIGKTISLISVTDNRYVGLLEDIDSEKGTVTLKEVRCFGTEGRKNWGPEEIYPNPTVYNSVKFNGSEVKDLSILDANINDIQPVVPQMMPPASQFPPQQAQSPPQAQAQAHVQTNPQVPKPESNVPAAVAGYGVYTPTSTETATASMNDKSTPQDTNVNSQSRERGKNGENEPKYQRNKNRSSNRPPQSNRNFKVDIPNEDFDFQSNNAKFTKGDSTDVEKEKELESAVHKQDESDEQFYNKKSSFFDTISTSTETNTNMRWQEEKMLNVDTFGQASARPRFHSRGLGRGRGNYRGNRGNRGRGGQRGNYQNRNNYQNDSGAYQNQNDSYSRPANQFSQPPSNVEF
- binding: binds
